Our source for the binding values is publication PMC12574955, “The Ync13–Rga7–Rng10 complex selectively coordinates secretory vesicle trafficking and secondary septum formation during cytokinesis” (PLOS Biology, 2025).

Test in all cases: ectopic mistargeting to mitochondria (Tom20-GBP); protein 1 tagged with mEGFP or mECitrine tethered to mitochondria by Tom20-GBP in live S. pombe cells; recruitment of tdTomato/mCherry/RFP-tagged protein 2 seen by confocal microscopy; Ync13 with Sec1 also tested in rng10Δ cells
Assay [1] has as its target T1, 3nmt1-mECitrine-Ync13 (Schizosaccharomyces pombe) (UniProt O13683).
T1 sequence: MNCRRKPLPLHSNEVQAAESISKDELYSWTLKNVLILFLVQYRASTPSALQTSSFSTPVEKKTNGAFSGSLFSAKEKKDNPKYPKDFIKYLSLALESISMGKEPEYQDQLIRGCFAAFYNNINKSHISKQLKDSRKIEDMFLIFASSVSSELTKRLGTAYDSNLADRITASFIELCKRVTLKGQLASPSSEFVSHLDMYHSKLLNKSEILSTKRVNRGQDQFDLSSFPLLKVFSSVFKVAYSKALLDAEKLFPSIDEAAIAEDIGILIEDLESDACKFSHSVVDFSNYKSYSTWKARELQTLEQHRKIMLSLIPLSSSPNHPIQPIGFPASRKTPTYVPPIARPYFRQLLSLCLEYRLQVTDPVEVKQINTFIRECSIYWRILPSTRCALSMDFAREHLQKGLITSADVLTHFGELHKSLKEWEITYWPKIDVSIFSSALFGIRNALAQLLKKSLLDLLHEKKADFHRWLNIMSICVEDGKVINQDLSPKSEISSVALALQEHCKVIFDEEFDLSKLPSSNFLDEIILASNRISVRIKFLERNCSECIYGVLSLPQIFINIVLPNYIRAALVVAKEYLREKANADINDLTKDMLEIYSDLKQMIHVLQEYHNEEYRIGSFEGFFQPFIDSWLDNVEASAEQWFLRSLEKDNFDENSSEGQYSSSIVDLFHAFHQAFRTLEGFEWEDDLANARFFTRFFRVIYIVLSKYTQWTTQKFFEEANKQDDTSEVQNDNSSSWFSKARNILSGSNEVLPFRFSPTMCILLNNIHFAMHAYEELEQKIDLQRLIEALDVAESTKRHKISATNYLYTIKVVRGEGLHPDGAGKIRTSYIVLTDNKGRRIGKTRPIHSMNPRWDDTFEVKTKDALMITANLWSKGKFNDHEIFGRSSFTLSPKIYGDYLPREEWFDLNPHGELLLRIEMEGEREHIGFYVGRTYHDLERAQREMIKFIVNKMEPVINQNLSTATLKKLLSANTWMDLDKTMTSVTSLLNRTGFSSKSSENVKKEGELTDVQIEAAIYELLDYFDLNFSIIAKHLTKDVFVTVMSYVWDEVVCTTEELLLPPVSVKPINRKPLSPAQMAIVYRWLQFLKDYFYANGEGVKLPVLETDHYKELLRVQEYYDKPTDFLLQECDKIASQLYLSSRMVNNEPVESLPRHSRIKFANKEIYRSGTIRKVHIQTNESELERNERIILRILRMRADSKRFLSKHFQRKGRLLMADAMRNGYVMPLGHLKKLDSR

For assay [2], the target named is T2, Rga7-mEGFP (Schizosaccharomyces pombe) (UniProt O94466).
T2 sequence: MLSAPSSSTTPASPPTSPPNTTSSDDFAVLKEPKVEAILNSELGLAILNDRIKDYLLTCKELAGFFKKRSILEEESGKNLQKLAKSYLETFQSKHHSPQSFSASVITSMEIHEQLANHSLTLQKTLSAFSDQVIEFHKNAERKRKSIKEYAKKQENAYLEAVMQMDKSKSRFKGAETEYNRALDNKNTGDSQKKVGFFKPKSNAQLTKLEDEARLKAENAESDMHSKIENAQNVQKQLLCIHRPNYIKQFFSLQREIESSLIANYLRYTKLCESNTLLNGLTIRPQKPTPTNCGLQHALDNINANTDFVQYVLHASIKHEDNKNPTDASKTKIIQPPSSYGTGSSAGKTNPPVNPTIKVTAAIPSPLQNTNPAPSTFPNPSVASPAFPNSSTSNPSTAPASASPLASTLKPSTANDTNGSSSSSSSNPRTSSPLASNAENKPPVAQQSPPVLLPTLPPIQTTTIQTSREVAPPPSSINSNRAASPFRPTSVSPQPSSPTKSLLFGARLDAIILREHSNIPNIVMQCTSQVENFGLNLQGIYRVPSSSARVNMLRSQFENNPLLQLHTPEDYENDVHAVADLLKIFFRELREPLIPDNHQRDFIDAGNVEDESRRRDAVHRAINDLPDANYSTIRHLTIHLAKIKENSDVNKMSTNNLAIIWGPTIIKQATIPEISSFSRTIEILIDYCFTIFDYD

Assay [3] deals with T3, Rng10-mEGFP (Schizosaccharomyces pombe) (UniProt Q9P6L9).
T3 sequence: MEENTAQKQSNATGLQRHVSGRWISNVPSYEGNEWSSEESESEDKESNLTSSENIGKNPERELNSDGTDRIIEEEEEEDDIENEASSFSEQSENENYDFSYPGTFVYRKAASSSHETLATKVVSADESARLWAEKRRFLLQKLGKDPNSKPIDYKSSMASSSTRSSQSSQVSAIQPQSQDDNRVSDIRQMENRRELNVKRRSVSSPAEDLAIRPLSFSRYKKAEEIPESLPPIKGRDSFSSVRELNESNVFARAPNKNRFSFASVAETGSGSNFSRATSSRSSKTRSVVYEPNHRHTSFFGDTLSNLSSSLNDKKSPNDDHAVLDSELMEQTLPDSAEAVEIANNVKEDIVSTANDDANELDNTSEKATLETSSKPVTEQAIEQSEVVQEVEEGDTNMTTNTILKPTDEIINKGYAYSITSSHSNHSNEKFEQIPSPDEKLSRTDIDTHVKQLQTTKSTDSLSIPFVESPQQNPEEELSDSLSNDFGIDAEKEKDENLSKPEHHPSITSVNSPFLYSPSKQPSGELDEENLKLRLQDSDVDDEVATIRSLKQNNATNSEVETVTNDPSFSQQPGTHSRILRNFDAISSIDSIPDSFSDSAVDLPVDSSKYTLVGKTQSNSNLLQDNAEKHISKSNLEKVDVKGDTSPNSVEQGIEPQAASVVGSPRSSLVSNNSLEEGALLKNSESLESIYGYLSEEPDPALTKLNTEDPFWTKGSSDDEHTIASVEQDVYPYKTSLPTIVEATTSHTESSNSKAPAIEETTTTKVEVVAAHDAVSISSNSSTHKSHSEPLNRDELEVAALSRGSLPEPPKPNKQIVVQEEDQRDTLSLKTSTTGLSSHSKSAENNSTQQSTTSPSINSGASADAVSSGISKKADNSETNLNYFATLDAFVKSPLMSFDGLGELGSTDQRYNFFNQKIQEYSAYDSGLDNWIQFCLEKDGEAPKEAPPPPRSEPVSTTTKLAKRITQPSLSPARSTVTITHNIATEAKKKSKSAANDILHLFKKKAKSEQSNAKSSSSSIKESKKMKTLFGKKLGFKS

Assay [4] deals with Rga7(∆F-BAR)-mEGFP (Schizosaccharomyces pombe).

Results are given in words; binding and its absence hold for the method and conditions named. For some assays here: Binding can be weak; no strength is given. For some assays here: Tags and fused reporters may be left off the sequences shown.

“Sec3-mCherry (Schizosaccharomyces pombe)”: the binding result in assay [1] is given as “no binding”. On to “Sec3-tdTomato (Schizosaccharomyces pombe)”, for which the binding result in assay [2] and in assay [3] was “no binding” throughout.

With “Ede1-mCherry (Schizosaccharomyces pombe)”, the binding result in assay [1] is given as “no binding”.

B1: Ync13-tdTomato (protein, UniProt O13683 1-1237)
chain: MNCRRKPLPLHSNEVQAAESISKDELYSWTLKNVLILFLVQYRASTPSALQTSSFSTPVEKKTNGAFSGSLFSAKEKKDNPKYPKDFIKYLSLALESISMGKEPEYQDQLIRGCFAAFYNNINKSHISKQLKDSRKIEDMFLIFASSVSSELTKRLGTAYDSNLADRITASFIELCKRVTLKGQLASPSSEFVSHLDMYHSKLLNKSEILSTKRVNRGQDQFDLSSFPLLKVFSSVFKVAYSKALLDAEKLFPSIDEAAIAEDIGILIEDLESDACKFSHSVVDFSNYKSYSTWKARELQTLEQHRKIMLSLIPLSSSPNHPIQPIGFPASRKTPTYVPPIARPYFRQLLSLCLEYRLQVTDPVEVKQINTFIRECSIYWRILPSTRCALSMDFAREHLQKGLITSADVLTHFGELHKSLKEWEITYWPKIDVSIFSSALFGIRNALAQLLKKSLLDLLHEKKADFHRWLNIMSICVEDGKVINQDLSPKSEISSVALALQEHCKVIFDEEFDLSKLPSSNFLDEIILASNRISVRIKFLERNCSECIYGVLSLPQIFINIVLPNYIRAALVVAKEYLREKANADINDLTKDMLEIYSDLKQMIHVLQEYHNEEYRIGSFEGFFQPFIDSWLDNVEASAEQWFLRSLEKDNFDENSSEGQYSSSIVDLFHAFHQAFRTLEGFEWEDDLANARFFTRFFRVIYIVLSKYTQWTTQKFFEEANKQDDTSEVQNDNSSSWFSKARNILSGSNEVLPFRFSPTMCILLNNIHFAMHAYEELEQKIDLQRLIEALDVAESTKRHKISATNYLYTIKVVRGEGLHPDGAGKIRTSYIVLTDNKGRRIGKTRPIHSMNPRWDDTFEVKTKDALMITANLWSKGKFNDHEIFGRSSFTLSPKIYGDYLPREEWFDLNPHGELLLRIEMEGEREHIGFYVGRTYHDLERAQREMIKFIVNKMEPVINQNLSTATLKKLLSANTWMDLDKTMTSVTSLLNRTGFSSKSSENVKKEGELTDVQIEAAIYELLDYFDLNFSIIAKHLTKDVFVTVMSYVWDEVVCTTEELLLPPVSVKPINRKPLSPAQMAIVYRWLQFLKDYFYANGEGVKLPVLETDHYKELLRVQEYYDKPTDFLLQECDKIASQLYLSSRMVNNEPVESLPRHSRIKFANKEIYRSGTIRKVHIQTNESELERNERIILRILRMRADSKRFLSKHFQRKGRLLMADAMRNGYVMPLGHLKKLDSR
As for B1, the binding entry in assay [4] is reported as “binds”.
